# Assay results published in the supplement of paper PMC12823440, “Inhibitors supercharge kinase turnover through native proteolytic circuits” (Nature, 2025).
# Chains of the proteins cited; added tags and fusions are not shown. Lines headed by an entry give the natural chain unless they say otherwise; changes in a name come on top.
# UniProt P07333, whole entry: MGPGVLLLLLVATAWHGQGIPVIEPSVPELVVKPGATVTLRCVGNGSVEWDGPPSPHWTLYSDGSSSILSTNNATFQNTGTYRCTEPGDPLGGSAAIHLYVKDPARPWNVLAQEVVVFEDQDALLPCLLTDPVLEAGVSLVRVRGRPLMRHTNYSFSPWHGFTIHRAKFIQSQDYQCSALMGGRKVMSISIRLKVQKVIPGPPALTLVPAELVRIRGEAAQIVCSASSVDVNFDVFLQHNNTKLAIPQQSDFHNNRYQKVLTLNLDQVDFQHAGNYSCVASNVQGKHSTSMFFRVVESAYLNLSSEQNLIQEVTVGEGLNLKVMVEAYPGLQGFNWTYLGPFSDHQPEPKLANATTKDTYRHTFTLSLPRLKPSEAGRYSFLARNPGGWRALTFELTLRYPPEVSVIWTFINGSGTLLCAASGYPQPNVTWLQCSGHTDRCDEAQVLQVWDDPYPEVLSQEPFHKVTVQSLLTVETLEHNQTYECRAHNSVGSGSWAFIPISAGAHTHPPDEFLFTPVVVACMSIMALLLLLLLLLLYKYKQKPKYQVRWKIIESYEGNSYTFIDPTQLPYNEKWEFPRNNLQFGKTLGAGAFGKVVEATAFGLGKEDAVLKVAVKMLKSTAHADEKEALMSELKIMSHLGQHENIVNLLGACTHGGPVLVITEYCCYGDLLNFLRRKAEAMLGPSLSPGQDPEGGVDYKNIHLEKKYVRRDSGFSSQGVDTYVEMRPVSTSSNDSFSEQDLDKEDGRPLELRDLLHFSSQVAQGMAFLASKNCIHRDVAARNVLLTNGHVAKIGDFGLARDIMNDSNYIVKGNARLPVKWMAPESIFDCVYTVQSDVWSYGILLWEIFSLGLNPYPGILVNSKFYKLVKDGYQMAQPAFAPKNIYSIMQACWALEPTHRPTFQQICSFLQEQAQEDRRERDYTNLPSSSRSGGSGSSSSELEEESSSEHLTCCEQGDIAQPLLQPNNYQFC
# UniProt P41240: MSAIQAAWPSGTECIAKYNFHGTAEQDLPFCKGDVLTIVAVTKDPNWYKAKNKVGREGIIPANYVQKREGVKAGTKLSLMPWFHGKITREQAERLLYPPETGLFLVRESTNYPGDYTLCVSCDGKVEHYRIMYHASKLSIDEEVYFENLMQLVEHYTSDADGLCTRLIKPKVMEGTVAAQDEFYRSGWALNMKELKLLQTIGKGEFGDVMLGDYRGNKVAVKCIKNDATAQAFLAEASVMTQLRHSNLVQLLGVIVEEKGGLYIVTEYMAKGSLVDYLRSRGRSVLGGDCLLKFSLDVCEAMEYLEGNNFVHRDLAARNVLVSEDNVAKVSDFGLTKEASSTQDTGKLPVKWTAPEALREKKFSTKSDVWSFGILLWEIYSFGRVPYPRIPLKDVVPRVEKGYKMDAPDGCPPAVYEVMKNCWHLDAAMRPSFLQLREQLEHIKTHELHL
# UniProt Q9Y463, whole entry, looked up: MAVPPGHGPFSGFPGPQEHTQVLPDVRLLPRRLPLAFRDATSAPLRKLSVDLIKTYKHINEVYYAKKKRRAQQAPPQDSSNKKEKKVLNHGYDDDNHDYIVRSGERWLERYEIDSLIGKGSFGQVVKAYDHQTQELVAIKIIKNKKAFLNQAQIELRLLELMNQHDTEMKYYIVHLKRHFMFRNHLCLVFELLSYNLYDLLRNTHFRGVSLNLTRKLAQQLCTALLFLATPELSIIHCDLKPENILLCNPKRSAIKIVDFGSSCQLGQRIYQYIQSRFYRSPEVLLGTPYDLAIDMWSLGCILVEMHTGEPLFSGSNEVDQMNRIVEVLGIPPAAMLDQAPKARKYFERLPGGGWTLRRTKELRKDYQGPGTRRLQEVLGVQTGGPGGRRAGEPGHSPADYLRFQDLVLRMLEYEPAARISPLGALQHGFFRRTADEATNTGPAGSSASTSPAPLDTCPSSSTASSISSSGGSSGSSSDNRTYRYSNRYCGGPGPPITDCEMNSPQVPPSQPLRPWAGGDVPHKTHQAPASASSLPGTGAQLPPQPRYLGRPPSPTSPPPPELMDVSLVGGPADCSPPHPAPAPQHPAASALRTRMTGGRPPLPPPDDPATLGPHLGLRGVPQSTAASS
# UniProt Q92630: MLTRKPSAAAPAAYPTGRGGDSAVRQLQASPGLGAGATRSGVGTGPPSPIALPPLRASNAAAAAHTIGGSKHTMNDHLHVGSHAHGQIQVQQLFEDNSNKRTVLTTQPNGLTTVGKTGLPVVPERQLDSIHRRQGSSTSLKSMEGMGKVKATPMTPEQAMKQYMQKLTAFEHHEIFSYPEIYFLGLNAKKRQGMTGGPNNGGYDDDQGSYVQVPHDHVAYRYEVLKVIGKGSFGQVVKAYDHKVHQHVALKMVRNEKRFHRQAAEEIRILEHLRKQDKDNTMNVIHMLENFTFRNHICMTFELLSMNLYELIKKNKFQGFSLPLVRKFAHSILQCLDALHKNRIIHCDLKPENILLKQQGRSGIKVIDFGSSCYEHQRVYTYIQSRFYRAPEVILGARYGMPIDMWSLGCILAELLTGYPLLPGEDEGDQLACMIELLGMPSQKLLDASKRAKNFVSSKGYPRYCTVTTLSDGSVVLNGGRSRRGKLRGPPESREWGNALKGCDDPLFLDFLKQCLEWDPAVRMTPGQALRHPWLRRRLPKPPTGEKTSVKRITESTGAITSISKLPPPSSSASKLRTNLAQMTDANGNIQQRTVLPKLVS
# UniProt P29317, whole entry: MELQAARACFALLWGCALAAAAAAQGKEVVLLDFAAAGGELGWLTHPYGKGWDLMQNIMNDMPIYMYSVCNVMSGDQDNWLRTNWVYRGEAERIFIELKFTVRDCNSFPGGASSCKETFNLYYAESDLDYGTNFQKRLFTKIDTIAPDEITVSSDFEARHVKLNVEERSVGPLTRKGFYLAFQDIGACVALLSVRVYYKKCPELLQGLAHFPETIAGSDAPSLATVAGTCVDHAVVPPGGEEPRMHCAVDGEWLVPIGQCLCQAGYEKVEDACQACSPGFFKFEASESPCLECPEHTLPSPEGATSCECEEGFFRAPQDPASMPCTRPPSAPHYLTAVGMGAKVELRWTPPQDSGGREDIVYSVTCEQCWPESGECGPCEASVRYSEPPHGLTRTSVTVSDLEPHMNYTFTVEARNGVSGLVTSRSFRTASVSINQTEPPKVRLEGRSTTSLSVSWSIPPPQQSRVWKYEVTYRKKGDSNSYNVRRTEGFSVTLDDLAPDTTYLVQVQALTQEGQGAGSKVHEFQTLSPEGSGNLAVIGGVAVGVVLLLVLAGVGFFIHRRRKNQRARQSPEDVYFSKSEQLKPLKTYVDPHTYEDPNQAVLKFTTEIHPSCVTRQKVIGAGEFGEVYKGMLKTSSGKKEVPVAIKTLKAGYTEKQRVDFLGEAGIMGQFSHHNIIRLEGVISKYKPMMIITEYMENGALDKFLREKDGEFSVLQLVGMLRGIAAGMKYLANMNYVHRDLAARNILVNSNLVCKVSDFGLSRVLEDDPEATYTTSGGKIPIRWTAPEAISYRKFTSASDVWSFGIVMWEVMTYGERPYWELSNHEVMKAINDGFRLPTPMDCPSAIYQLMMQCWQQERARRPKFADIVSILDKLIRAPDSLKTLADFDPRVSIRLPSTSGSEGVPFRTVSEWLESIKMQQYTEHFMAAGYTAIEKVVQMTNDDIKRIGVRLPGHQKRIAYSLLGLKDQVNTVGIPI
# UniProt P21860, whole entry: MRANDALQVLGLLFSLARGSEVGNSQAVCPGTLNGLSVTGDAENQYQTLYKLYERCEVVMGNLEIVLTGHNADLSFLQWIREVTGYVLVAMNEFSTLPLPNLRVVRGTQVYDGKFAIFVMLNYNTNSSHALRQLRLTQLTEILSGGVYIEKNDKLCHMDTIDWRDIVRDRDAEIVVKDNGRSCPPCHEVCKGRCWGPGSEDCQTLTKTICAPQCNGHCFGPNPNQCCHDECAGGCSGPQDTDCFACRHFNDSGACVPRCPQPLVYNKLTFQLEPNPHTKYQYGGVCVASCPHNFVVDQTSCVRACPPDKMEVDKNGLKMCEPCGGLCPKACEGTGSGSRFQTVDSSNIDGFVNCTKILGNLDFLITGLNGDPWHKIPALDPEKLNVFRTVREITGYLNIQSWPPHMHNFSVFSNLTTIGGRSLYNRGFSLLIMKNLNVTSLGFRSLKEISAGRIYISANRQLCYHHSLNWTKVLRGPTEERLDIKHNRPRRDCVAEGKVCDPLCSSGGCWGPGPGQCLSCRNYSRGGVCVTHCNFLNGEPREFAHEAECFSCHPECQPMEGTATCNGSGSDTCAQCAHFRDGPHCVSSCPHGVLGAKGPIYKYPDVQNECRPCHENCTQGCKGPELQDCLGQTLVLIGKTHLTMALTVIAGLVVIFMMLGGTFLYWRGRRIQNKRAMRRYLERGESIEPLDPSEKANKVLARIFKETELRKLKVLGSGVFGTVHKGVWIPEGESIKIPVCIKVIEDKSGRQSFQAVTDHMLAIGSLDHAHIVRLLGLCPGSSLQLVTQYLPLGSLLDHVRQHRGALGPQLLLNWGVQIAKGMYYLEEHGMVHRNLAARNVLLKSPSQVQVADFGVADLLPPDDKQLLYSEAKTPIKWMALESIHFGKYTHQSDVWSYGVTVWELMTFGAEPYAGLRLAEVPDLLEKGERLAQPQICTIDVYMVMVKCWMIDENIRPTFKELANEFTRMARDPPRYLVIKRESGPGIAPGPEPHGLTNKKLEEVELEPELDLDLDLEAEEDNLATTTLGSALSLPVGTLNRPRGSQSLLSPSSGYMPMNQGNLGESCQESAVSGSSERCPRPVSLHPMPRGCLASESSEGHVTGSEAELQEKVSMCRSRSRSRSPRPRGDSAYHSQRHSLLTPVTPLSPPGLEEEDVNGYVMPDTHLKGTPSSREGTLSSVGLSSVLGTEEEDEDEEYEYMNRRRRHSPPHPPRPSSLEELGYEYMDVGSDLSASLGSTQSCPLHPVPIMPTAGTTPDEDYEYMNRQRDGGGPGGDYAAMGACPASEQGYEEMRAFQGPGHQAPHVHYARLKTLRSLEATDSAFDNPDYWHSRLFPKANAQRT
# UniProt Q15303, whole entry R711C: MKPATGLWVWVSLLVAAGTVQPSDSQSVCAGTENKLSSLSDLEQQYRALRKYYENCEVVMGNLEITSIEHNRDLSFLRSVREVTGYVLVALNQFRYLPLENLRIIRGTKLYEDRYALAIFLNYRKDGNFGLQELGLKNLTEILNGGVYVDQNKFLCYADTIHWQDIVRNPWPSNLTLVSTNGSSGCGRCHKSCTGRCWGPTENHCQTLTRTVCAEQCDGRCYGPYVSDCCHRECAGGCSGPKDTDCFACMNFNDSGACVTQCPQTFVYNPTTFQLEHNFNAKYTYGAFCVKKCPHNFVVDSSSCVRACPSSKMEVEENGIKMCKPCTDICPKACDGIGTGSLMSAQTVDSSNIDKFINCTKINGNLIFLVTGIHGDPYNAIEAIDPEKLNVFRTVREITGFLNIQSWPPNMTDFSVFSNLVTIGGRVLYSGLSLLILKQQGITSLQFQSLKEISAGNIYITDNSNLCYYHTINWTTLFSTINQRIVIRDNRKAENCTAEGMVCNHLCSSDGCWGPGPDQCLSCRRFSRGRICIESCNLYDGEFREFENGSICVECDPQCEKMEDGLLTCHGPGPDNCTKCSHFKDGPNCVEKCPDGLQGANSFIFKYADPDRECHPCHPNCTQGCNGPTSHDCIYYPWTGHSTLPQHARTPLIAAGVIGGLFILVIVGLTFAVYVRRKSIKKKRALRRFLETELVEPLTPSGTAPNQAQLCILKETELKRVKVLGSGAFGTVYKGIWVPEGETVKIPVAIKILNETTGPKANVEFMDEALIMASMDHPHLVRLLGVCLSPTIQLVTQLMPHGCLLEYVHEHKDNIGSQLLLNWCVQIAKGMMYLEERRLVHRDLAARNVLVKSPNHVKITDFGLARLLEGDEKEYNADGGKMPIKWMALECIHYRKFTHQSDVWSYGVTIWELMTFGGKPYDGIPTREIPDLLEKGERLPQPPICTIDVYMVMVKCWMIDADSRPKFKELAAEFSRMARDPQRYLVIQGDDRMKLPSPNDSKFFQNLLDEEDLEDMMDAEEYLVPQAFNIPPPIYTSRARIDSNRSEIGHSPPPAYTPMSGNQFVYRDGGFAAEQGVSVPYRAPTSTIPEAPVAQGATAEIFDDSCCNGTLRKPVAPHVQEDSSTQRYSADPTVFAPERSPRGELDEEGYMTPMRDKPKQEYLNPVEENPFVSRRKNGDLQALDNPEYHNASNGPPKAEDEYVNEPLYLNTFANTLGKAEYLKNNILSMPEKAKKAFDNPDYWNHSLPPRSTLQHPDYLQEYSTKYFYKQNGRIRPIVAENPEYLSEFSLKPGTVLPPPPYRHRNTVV
# Where a name gives a salt, the structure may show the parent alone. The list shows a part of the results. Hit calls seldom repeat between salt and free forms of one compound.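 In K562 cells expressing nanoluciferase-fused kinases, luminescence was recorded at 4 h intervals between 2 and 18 h, normalized as percent of control with DMSO at 100% and a positive control at 0%. A significant (2 sigma) signal drop marks a time point as decreased. The authors' rule for a hit is not shown and takes in more than the number of time points.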
# Tests used:
# Assay in all cases: kinase-Nluc reporter destabilization hit call (1 = scored as downregulated) (binary); higher = compound decreases kinase abundance
# Settings in all cases: K562; 2-18 h
# CDK7 = CDK7 (UniProt P50613)
# CDK9 = CDK9 (UniProt P50750)
# CHEK2 = CHEK2 (UniProt O96017)
# CSF1R = CSF1R (UniProt P07333)
# CSK = CSK (UniProt P41240)
# CSNK1A1 = CSNK1A1 (UniProt P48729)
# CSNK1D = CSNK1D (UniProt P48730)
# DDR1 = DDR1 (UniProt Q08345)
# DYRK1B = DYRK1B (UniProt Q9Y463)
# DYRK2 = DYRK2 (UniProt Q92630)
# EGFR = EGFR (UniProt P00533)
# EGFR_G719S = EGFR_G719S (UniProt P00533)
# EGFR_G719S_T790M = EGFR_G719S_T790M (UniProt P00533)
# EGFR_L718V = EGFR_L718V (UniProt P00533)
# EGFR_L858R = EGFR_L858R (UniProt P00533)
# EGFR_L861Q = EGFR_L861Q (UniProt P00533)
# EGFR_T790M = EGFR_T790M (UniProt P00533)
# EPHA2 = EPHA2 (UniProt P29317)
# ERBB3 = ERBB3 (UniProt P21860)
# [1] = molecular target: ERBB4_R711C (clone: ERBB4_mut) (UniProt Q15303)
Structure (SMILES),kinase-Nluc reporter destabilization hit call (CDK7),kinase-Nluc reporter destabilization hit call (CDK9),kinase-Nluc reporter destabilization hit call (CHEK2),kinase-Nluc reporter destabilization hit call (CSF1R),kinase-Nluc reporter destabilization hit call (CSK),kinase-Nluc reporter destabilization hit call (CSNK1A1),kinase-Nluc reporter destabilization hit call (CSNK1D),kinase-Nluc reporter destabilization hit call (DDR1),kinase-Nluc reporter destabilization hit call (DYRK1B),kinase-Nluc reporter destabilization hit call (DYRK2),kinase-Nluc reporter destabilization hit call (EGFR),kinase-Nluc reporter destabilization hit call (EGFR_G719S),kinase-Nluc reporter destabilization hit call (EGFR_G719S_T790M),kinase-Nluc reporter destabilization hit call (EGFR_L718V),kinase-Nluc reporter destabilization hit call (EGFR_L858R),kinase-Nluc reporter destabilization hit call (EGFR_L861Q),kinase-Nluc reporter destabilization hit call (EGFR_T790M),kinase-Nluc reporter destabilization hit call (EPHA2),kinase-Nluc reporter destabilization hit call (ERBB3),kinase-Nluc reporter destabilization hit call [1]
CCOC(=O)c1c(N2CCc3ccc(OC)cc3C2)oc(C=C2C=Nc3ncccc32)c1O (10 µM),inactive: 0,inactive: 0,inactive: 0,inactive: 0,inactive: 0,inactive: 0,inactive: 0,inactive: 0,inactive: 0,inactive: 0,inactive: 0,inactive: 0,inactive: 0,inactive: 0,inactive: 0,inactive: 0,inactive: 0,inactive: 0,inactive: 0,inactive: 0
CS(=O)(=O)c1cccc(CNc2nc(Nc3ccc4c(c3)CCC(=O)N4)ncc2C(F)(F)F)c1 (10 µM),inactive: 0,inactive: 0,inactive: 0,inactive: 0,inactive: 0,inactive: 0,inactive: 0,inactive: 0,inactive: 0,inactive: 0,inactive: 0,inactive: 0,inactive: 0,inactive: 0,inactive: 0,inactive: 0,inactive: 0,inactive: 0,inactive: 0,inactive: 0
CC(=O)O/N=C1/C(c2c(O)[nH]c3cc(Br)ccc23)=Nc2ccccc21 [BIO-acetoxime] (10 µM),inactive: 0,inactive: 0,inactive: 0,inactive: 0,inactive: 0,inactive: 0,inactive: 0,inactive: 0,inactive: 0,inactive: 0,inactive: 0,inactive: 0,inactive: 0,inactive: 0,inactive: 0,inactive: 0,inactive: 0,inactive: 0,inactive: 0,inactive: 0
C[C@@H]1COC(Nc2ccc3ncnc(Nc4ccc(OCc5nccs5)c(Cl)c4)c3c2)=N1 [Varlitinib] (10 µM),inactive: 0,inactive: 0,inactive: 0,inactive: 0,inactive: 0,inactive: 0,inactive: 0,inactive: 0,inactive: 0,inactive: 0,inactive: 0,inactive: 0,inactive: 0,inactive: 0,inactive: 0,inactive: 0,inactive: 0,inactive: 0,inactive: 0,inactive: 0
O=C1CCC(N2C(=O)c3cccc(OCCCCCOc4ccc(CC(=O)Nc5cc(C6CCC6)[nH]n5)cc4)c3C2=O)C(=O)N1 (stereo not given) [PROTAC CDK9 Degrader-1] (10 µM),inactive: 0,inactive: 0,inactive: 0,inactive: 0,inactive: 0,inactive: 0,inactive: 0,inactive: 0,inactive: 0,inactive: 0,inactive: 0,inactive: 0,inactive: 0,inactive: 0,inactive: 0,inactive: 0,inactive: 0,inactive: 0,inactive: 0,inactive: 0
CC1(C)C=Cc2c(ccc(C(=O)/C=C/c3ccc(O)cc3)c2O)O1 [4-Hydroxylonchocarpin] (10 µM),inactive: 0,inactive: 0,inactive: 0,inactive: 0,inactive: 0,inactive: 0,inactive: 0,inactive: 0,inactive: 0,inactive: 0,inactive: 0,inactive: 0,inactive: 0,inactive: 0,inactive: 0,inactive: 0,inactive: 0,inactive: 0,inactive: 0,inactive: 0
COc1cc2nc(NC3CC3)nc(NC3CCN(C(C)C)CC3)c2cc1OC (10 µM),inactive: 0,inactive: 0,inactive: 0,inactive: 0,inactive: 0,inactive: 0,inactive: 0,inactive: 0,inactive: 0,inactive: 0,inactive: 0,inactive: 0,inactive: 0,inactive: 0,inactive: 0,inactive: 0,inactive: 0,inactive: 0,inactive: 0,inactive: 0
COc1ccc(-c2cc(=O)c3c(O)cc(O)cc3o2)cc1-c1c(O)cc(O)c2c(=O)cc(-c3ccc(O)cc3)oc12 [Bilobetin] (2.5 µM),inactive: 0,inactive: 0,inactive: 0,inactive: 0,inactive: 0,inactive: 0,inactive: 0,inactive: 0,inactive: 0,inactive: 0,inactive: 0,inactive: 0,inactive: 0,inactive: 0,inactive: 0,inactive: 0,inactive: 0,inactive: 0,inactive: 0,inactive: 0
CO[C@]1(C(=O)N[C@@H](C)c2ccc(-n3cc(F)cn3)nc2)CC[C@H](c2nc(C)cc(Nc3cc(C)[nH]n3)n2)CC1 [Pralsetinib] (10 µM),inactive: 0,inactive: 0,inactive: 0,inactive: 0,inactive: 0,inactive: 0,inactive: 0,active: 1,inactive: 0,inactive: 0,inactive: 0,inactive: 0,inactive: 0,inactive: 0,inactive: 0,inactive: 0,inactive: 0,inactive: 0,inactive: 0,inactive: 0
O=C(CCl)c1c[nH]c2ccccc12 (2.5 µM),inactive: 0,inactive: 0,inactive: 0,inactive: 0,inactive: 0,inactive: 0,inactive: 0,inactive: 0,inactive: 0,inactive: 0,inactive: 0,inactive: 0,inactive: 0,inactive: 0,inactive: 0,inactive: 0,inactive: 0,inactive: 0,inactive: 0,inactive: 0
C=CC(=O)N1CCC(c2ccc(C(N)=O)c(-c3ccc(Oc4ccccc4)cc3)n2)CC1 [Orelabrutinib] (2.5 µM),inactive: 0,inactive: 0,inactive: 0,inactive: 0,inactive: 0,inactive: 0,inactive: 0,inactive: 0,inactive: 0,inactive: 0,inactive: 0,inactive: 0,inactive: 0,inactive: 0,inactive: 0,inactive: 0,inactive: 0,inactive: 0,inactive: 0,inactive: 0
NC(=O)c1sc2c([N+](=O)[O-])cc(C(F)(F)F)cc2[n+]1[O-] [Cyclapolin 9] (10 µM),inactive: 0,inactive: 0,inactive: 0,inactive: 0,inactive: 0,inactive: 0,inactive: 0,inactive: 0,inactive: 0,inactive: 0,inactive: 0,inactive: 0,inactive: 0,inactive: 0,inactive: 0,inactive: 0,inactive: 0,inactive: 0,inactive: 0,inactive: 0
COc1ccc(CN2CCC(c3ccc4nc(C(=O)N5CCN(Cc6ccc(C(F)(F)F)cc6)CC5)[nH]c4c3)CC2)cn1 (2.5 µM),inactive: 0,inactive: 0,inactive: 0,inactive: 0,inactive: 0,inactive: 0,inactive: 0,inactive: 0,inactive: 0,inactive: 0,inactive: 0,inactive: 0,inactive: 0,inactive: 0,inactive: 0,inactive: 0,inactive: 0,inactive: 0,inactive: 0,inactive: 0
CC(=O)O[C@@H]1[C@@H](OC(C)=O)[C@@H](O)[C@H](Oc2c(-c3ccc(O)cc3)oc3cc(O)cc(O)c3c2=O)O[C@H]1C (10 µM),inactive: 0,inactive: 0,inactive: 0,inactive: 0,inactive: 0,inactive: 0,inactive: 0,inactive: 0,inactive: 0,inactive: 0,inactive: 0,inactive: 0,inactive: 0,inactive: 0,inactive: 0,inactive: 0,inactive: 0,inactive: 0,inactive: 0,inactive: 0
CN1CCN(c2ccc(-n3cc(-c4ccncc4OCC4CCNCC4)cn3)cc2)CC1 [MELK-8a (hydrochloride)] (10 µM),inactive: 0,inactive: 0,inactive: 0,inactive: 0,inactive: 0,inactive: 0,inactive: 0,inactive: 0,inactive: 0,inactive: 0,inactive: 0,inactive: 0,inactive: 0,inactive: 0,inactive: 0,inactive: 0,inactive: 0,inactive: 0,inactive: 0,inactive: 0
O=C1NC(=O)C(Cc2c[nH]c3c(Cl)cccc23)N1 (stereo not given) [Necroptosis-IN-1] (10 µM),inactive: 0,inactive: 0,inactive: 0,inactive: 0,inactive: 0,inactive: 0,inactive: 0,inactive: 0,inactive: 0,inactive: 0,inactive: 0,inactive: 0,inactive: 0,inactive: 0,inactive: 0,inactive: 0,inactive: 0,inactive: 0,inactive: 0,inactive: 0
COc1cc(Nc2ccnc3ccc(Br)cc23)cc(OC)c1OC (2.5 µM),inactive: 0,inactive: 0,inactive: 0,inactive: 0,inactive: 0,inactive: 0,inactive: 0,inactive: 0,inactive: 0,inactive: 0,inactive: 0,inactive: 0,inactive: 0,inactive: 0,inactive: 0,inactive: 0,inactive: 0,inactive: 0,inactive: 0,inactive: 0
CCCCC(=O)OCC(=O)[C@]1(O)Cc2c(O)c3c(c(O)c2[C@@H](O[C@H]2C[C@H](NC(=O)C(F)(F)F)[C@H](O)[C@H](C)O2)C1)C(=O)c1c(OC)cccc1C3=O [Valrubicin] (10 µM),inactive: 0,inactive: 0,inactive: 0,inactive: 0,inactive: 0,inactive: 0,inactive: 0,inactive: 0,inactive: 0,inactive: 0,inactive: 0,inactive: 0,inactive: 0,inactive: 0,inactive: 0,inactive: 0,inactive: 0,inactive: 0,inactive: 0,inactive: 0

# Some entries already given, limited to kinase-Nluc reporter destabilization hit call (CSF1R), kinase-Nluc reporter destabilization hit call [1] and kinase-Nluc reporter destabilization hit call (EGFR_L861Q):
Structure (SMILES)	kinase-Nluc reporter destabilization hit call (CSF1R)	kinase-Nluc reporter destabilization hit call [1]	kinase-Nluc reporter destabilization hit call (EGFR_L861Q)
O=C1CCC(N2C(=O)c3cccc(OCCCCCOc4ccc(CC(=O)Nc5cc(C6CCC6)[nH]n5)cc4)c3C2=O)C(=O)N1 (stereo not given) [PROTAC CDK9 Degrader-1] (10 µM)	inactive: 0	inactive: 0	inactive: 0
CC1(C)C=Cc2c(ccc(C(=O)/C=C/c3ccc(O)cc3)c2O)O1 [4-Hydroxylonchocarpin] (10 µM)	inactive: 0	inactive: 0	inactive: 0
